Measurements reported in patent US20160279215A1, “NOVEL PEPTIDES AND COMBINATION OF PEPTIDES FOR USE IN IMMUNOTHERAPY AGAINST VARIOUS TUMORS” (immatics biotechnologies GmbH, priority 2015, published 2016).
For some assays here: Expression grades refer to the transcript from which the peptide derives; gene names, where given, were looked up from the sequence.

Columns and labels:
Parameters in all cases: species or system human
[1] = tested on: source genes of the peptides (mRNA) in tumor and normal tissue; assay: Expression profiling of source genes by RNAseq (target coverage); conditions: share of tumors with more than 1.5-fold over-expression vs highest-expressing relevant normal tissue
[2] = Identification and label-free relative LC-MS quantitation of HLA-presented peptides on tumor and normal tissue samples (XPRESIDENT presentation profiles)
[3] = Absolute quantitation of TUMAP copies per cell in tumor samples by nanoLC-MS/MS; conditions: absolute peptide quantitation in tumor samples; median over samples

264: peptide found in ESR1 (gene looked up) (TLHDQVHLL; listed as Homo sapiens) [compound 264]
Target coverage for source genes, AML (%) ([1]; acute myeloid leukemia): I (<19% over-expression = I)
Target coverage for source genes, BRCA (%) ([1]; breast cancer): IV (>70% = IV)
Target coverage for source genes, CLL (%) ([1]; chronic leukemia (CLL)): I (<19% over-expression = I)
Target coverage for source genes, OSCAR (%) ([1]; esophageal cancer incl. gastric-oesophageal junction): I (<19% over-expression = I)
Target coverage for source genes, GBC_CCC (%) ([1]; gallbladder adenocarcinoma and cholangiocarcinoma): I (<19% over-expression = I)
Target coverage for source genes, MEL (%) ([1]; melanoma): I (<19% over-expression = I)
Target coverage for source genes, NHL (%) ([1]; non-Hodgkin lymphoma): I (<19% over-expression = I)
Target coverage for source genes, OC (%) ([1]; ovarian cancer): IV (>70% = IV)
Target coverage for source genes, SCLC (%) ([1]; small cell lung cancer): I (<19% over-expression = I)
Target coverage for source genes, UBC (%) ([1]; urinary bladder cancer): I (<19% over-expression = I)
Target coverage for source genes, UTC (%) ([1]; uterine cancer): IV (>70% = IV)
Entities of particular interest ([2]; entities where the peptide was over-presented on cancer samples compared to normal tissues): NSCLC, BPH, OC
Additional entities of particular interest (presentation of selected peptides across entities) ([2]; tumor entities on which the HLA-presented peptide was found, entity abbreviations defined in the title of Table 4B): UTC, BRCA, GBC_CCC, MEL
Copies per cell (median) [3]: + (<100 = +)
